We go through one molecule from article PMC5493759, “Neurovascular EGFL7 regulates adult neurogenesis in the subventricular zone and thereby affects olfactory perception” (Nature Communications, 2017).

Sequences of proteins named here, by UniProt entry; tags and fusion partners are left off. A change or cut given only in a name is not applied to a line headed by its entry.
UniProt Q01705: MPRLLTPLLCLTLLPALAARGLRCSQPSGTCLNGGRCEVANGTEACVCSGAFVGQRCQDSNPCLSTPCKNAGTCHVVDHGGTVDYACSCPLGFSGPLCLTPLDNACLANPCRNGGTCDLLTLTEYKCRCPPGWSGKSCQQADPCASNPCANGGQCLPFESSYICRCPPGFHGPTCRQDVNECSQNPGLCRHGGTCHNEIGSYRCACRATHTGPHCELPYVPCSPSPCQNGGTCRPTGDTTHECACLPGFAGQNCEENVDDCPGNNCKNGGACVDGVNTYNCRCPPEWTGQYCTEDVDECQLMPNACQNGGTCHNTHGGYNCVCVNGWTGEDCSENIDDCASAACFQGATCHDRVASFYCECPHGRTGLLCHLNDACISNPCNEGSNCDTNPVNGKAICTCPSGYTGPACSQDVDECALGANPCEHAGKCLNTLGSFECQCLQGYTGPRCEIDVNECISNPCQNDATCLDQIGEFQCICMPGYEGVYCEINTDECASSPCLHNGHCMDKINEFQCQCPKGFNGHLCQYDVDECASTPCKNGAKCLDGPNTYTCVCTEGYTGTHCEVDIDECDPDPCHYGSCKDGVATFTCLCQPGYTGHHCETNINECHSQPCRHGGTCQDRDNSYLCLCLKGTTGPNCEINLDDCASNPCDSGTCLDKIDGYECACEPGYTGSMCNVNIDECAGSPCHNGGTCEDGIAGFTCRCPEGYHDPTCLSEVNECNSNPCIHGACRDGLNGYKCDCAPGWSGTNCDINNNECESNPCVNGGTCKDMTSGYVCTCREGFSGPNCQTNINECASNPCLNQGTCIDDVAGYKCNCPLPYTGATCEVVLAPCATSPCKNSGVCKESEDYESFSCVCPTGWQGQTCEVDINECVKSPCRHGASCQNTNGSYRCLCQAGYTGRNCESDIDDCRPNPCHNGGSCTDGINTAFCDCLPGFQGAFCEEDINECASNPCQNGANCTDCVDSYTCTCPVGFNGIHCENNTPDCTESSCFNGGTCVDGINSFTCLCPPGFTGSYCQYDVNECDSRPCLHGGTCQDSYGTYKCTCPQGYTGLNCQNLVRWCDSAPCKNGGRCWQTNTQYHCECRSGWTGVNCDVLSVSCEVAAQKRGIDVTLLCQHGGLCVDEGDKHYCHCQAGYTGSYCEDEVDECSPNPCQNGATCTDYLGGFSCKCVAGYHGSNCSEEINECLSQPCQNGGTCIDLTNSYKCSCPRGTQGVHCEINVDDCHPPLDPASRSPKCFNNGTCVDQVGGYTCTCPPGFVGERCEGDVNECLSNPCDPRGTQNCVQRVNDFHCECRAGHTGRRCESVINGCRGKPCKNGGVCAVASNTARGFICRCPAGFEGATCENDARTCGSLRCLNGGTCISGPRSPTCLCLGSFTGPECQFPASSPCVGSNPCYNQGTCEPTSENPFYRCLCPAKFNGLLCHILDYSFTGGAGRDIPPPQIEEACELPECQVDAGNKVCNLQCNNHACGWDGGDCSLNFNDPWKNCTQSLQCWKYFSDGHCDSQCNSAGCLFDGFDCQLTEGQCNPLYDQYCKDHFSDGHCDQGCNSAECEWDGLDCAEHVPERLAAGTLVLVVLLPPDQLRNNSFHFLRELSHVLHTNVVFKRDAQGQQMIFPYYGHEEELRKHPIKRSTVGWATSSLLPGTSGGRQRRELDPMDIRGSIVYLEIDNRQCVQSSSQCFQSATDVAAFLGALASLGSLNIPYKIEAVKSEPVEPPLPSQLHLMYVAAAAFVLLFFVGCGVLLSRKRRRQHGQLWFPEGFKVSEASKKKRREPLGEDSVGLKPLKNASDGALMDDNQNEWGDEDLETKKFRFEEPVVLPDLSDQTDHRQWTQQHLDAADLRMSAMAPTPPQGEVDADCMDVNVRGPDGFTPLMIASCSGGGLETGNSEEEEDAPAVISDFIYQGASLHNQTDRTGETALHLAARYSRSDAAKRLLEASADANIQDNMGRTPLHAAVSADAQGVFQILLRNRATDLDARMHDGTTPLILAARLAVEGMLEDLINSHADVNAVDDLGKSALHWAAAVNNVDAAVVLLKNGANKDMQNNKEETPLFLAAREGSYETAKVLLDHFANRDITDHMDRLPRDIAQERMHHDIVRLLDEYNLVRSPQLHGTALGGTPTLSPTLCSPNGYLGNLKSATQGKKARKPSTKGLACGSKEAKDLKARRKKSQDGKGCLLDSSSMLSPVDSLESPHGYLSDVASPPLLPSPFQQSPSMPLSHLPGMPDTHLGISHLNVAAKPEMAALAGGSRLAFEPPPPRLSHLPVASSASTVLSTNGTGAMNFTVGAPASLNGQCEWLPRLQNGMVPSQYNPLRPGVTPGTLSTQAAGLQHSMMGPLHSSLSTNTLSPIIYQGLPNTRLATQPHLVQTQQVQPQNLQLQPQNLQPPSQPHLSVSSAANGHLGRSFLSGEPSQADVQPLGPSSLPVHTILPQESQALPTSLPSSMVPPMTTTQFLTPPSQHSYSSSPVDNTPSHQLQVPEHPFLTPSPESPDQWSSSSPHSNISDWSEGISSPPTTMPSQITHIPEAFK

Results are given in words; binding and its absence hold for the method and conditions named. Binding seen in cells or lysates may run through a third protein. Binding can be weak; no strength is given. Tags and fused reporters may be left off the sequences shown.

The assay concerns the target V5-tagged Notch1-ECD deletion mutant Notch1-Δ24–29 (UniProt Q01705). As to the kind of experiment: co-IP; Flag-tagged EGFL7 co-expressed with V5-tagged Notch ECDs or Notch1-ECD deletion mutants in HEK293; lysate immunoprecipitated with Immunosorb A overnight at 4 °C; quantitative western blot (Odyssey); n=3. On the technique in general: A western blot detects proteins with antibodies after separation by electrophoresis.

B1: Flag-tagged EGFL7 (epidermal growth factor-like protein 7) (natural protein, UniProt Q9QXT5 22-275, looked up)
chain: EHVYRPSRRVCTVGISGGSISETFVQRVYQPYLTTCDGHRACSTYRTIYRTAYRRSPGVTPARPRYACCPGWKRTSGLPGACGAAICQPPCGNGGSCIRPGHCRCPVGWQGDTCQTDVDECSTGEASCPQRCVNTVGSYWCQGWEGQSPSADGTRCLSKEGPSPVAPNPTAGVDSMAREEVYRLQARVDVLEQKLQLVLAPLHSLASRSTEHGLQDPGSLLAHSFQQLDRIDSLSEQVSFLEEHLGSCSCKKDL
notes: epidermal growth factor-like protein 7 (EGFL7); the same molecule is used here; source: HEK293, transiently transfected, in lysate
On to B1, for which the binding result is on record as “binds”.
